The values that follow are results of earlier work, collected in publication PMC9341340, “The gram-negative bacterium Escherichia coli as a model for testing the effect of carbonic anhydrase inhibition on bacterial growth” (Journal of Enzyme Inhibition and Medicinal Chemistry, 2022).

The series has as its target T1, EcoCAγ (γ-CA).
T1 construct: gene yrdA
Particulars: read-out: KI (acetazolamide); CO2 hydration, 20 °C, pH 8.3, 20 mM TRIS, 20 mM NaClO4; mean of 3 assays, errors ±5–10%; same value stated as shown earlier by the same groups (b6).

In the case of `CC(=O)Nc1nnc(S(N)(=O)=O)s1` [AZA, 5-acetamido-1,3,4-thiadiazole-2-sulphonamide], the Ki – broadly, the dissociation constant of the complex between target and ligand, obtained from inhibition or displacement – is 0.248 µM.
